Source: PubChem BioAssay (EPA / NIEHS)
Where “and” joins values, the source holds several entries; their conditions need not be identical. Equal values may be shown once. Inconclusive results, whose numbers are uncertain, are shown with a selection of clear calls. A potency beside an inconclusive call is a rough fit, not a confirmed value. Calls of active or inactive are those of the source. The calls were made as follows: active = hit-call score of the fitted dose curve at least 0.9, where 1 is the maximum; inconclusive = response in the unintended direction; inactive = score below 0.9.

Chains of the proteins cited; added tags and fusions are not shown. Lines headed by an entry give the natural chain unless they say otherwise; changes in a name come on top.
UniProt P10276, whole entry, looked up: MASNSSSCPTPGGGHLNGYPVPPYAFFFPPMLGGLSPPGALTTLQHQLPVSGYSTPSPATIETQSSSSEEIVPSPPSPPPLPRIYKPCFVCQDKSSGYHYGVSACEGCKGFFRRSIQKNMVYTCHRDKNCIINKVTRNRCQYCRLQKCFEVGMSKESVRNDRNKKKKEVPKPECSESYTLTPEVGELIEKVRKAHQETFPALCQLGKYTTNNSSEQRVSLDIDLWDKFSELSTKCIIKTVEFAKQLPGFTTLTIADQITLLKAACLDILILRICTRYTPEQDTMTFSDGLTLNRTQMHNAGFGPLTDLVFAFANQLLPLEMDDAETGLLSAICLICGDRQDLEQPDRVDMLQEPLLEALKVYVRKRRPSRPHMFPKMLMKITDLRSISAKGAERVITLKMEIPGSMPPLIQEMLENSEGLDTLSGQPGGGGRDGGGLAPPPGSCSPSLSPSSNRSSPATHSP
UniProt O75469: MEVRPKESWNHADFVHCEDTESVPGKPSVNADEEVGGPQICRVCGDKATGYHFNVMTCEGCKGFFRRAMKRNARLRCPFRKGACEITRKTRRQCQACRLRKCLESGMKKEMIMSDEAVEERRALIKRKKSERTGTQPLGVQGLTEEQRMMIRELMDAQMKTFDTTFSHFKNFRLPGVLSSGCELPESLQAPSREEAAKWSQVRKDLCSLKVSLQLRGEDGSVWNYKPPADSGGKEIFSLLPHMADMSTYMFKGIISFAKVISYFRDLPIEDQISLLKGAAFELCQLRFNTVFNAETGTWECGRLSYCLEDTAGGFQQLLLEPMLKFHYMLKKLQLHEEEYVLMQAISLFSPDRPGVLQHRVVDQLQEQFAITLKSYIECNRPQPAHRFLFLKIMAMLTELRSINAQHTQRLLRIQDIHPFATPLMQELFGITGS
UniProt P13631, whole entry, looked up: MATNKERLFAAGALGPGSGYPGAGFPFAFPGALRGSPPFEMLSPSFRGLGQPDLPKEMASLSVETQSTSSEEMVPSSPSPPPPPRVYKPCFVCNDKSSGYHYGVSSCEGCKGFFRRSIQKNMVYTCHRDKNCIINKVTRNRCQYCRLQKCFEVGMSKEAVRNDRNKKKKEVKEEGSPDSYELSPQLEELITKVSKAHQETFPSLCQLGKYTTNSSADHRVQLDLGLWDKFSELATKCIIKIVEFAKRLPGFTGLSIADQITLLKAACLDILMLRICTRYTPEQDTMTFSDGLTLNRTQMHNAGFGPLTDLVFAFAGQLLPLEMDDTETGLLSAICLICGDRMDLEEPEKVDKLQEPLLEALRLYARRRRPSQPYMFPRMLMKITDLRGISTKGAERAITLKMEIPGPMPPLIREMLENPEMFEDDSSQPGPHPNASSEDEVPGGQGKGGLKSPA
UniProt Q92753: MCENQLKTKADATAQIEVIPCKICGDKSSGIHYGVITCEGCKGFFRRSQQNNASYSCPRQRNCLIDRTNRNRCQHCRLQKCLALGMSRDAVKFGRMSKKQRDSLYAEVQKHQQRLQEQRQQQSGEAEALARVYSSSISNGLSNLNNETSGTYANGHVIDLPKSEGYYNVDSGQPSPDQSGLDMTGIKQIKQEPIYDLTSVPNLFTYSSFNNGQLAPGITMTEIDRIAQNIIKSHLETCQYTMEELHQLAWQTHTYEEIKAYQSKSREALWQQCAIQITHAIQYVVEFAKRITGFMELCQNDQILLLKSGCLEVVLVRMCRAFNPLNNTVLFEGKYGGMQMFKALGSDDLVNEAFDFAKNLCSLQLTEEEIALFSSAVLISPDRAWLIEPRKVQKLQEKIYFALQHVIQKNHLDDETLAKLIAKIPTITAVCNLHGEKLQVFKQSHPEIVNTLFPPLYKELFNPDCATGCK
UniProt P51449: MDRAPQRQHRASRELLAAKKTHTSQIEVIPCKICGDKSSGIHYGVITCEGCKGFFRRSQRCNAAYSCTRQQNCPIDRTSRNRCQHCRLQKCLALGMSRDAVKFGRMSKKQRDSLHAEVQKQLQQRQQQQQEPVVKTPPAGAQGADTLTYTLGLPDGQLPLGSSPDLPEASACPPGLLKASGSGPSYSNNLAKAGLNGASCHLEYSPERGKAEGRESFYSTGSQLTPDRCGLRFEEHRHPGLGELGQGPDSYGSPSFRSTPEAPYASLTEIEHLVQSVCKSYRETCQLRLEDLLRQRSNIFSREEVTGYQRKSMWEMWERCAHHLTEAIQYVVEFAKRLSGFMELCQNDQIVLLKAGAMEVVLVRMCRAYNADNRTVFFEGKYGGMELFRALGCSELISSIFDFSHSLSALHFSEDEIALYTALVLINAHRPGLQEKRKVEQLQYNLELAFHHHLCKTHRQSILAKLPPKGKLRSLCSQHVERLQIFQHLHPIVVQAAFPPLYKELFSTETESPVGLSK
UniProt P19793: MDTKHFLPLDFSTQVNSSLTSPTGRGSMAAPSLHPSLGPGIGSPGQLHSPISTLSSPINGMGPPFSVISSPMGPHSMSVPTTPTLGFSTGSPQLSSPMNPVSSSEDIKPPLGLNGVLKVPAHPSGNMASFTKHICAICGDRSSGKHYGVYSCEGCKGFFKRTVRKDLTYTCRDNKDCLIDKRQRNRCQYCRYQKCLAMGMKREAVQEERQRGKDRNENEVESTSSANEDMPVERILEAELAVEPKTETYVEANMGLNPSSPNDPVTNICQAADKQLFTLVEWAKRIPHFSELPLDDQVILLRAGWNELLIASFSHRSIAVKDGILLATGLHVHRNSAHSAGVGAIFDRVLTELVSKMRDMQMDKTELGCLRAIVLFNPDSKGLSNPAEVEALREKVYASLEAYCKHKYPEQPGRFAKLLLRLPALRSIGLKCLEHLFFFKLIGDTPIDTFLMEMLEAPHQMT
UniProt P28702: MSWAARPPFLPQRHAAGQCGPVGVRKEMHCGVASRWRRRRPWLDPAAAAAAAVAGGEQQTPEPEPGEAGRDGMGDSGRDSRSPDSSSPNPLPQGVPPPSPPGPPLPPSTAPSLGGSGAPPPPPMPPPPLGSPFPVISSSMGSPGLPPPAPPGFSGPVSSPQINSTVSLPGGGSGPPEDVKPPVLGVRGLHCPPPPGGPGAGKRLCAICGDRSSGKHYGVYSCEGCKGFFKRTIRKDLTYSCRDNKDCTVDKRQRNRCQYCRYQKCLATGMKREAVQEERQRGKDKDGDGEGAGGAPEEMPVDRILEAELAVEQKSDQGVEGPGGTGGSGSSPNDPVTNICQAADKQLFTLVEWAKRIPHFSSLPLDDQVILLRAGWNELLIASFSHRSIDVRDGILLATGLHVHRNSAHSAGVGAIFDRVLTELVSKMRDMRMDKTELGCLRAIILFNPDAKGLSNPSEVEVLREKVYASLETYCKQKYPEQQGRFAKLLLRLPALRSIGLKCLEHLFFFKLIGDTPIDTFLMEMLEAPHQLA
UniProt P10827: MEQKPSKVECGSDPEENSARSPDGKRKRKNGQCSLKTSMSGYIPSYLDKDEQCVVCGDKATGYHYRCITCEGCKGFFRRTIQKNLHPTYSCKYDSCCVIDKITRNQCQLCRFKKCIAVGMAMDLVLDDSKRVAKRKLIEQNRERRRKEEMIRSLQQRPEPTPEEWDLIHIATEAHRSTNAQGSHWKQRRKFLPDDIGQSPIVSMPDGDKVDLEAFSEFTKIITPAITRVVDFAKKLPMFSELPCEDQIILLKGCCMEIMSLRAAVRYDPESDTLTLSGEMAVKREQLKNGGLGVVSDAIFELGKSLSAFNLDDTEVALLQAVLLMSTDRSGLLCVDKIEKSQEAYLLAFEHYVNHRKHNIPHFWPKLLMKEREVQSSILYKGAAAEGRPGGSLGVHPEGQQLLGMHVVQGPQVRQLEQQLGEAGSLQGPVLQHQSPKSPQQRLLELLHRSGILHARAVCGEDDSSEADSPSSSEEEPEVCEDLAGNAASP
UniProt P11473: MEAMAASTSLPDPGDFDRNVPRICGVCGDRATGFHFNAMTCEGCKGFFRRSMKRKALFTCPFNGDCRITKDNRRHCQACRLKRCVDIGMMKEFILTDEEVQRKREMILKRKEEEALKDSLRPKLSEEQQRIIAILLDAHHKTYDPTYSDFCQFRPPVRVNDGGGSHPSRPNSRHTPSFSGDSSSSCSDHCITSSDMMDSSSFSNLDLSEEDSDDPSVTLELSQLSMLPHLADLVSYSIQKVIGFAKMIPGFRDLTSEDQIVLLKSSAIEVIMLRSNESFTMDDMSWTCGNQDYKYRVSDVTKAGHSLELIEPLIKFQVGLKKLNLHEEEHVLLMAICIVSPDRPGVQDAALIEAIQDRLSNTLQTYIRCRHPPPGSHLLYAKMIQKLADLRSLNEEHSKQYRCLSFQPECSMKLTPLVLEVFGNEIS

Tests used:
[1] = molecular target: Retinoic acid receptor alpha (Homo sapiens) (UniProt P10276); test: ATG_RARa_TRANS: Attagene TRANS-FACTORIAL HepG2 Assay for human Retinoic Acid Receptor alpha (RARa) (AID 2283005);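 as to AC50: potency for increased reporter signal meaning RARa activation over DMSO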
Summary of the method: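 HepG2 transiently transfected with multiplex GAL4-UAS reporter units including a human RARa–GAL4 chimera; 24 h compound exposure. Reporter mRNA quantified by RT-PCR, 6-FAM labeling and capillary electrophoresis; gain of signal versus DMSO.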

[2] = molecular target: Nuclear receptor subfamily 1 group I member 2 (Homo sapiens) (UniProt O75469); test: ATG_PXR_TRANS: Attagene TRANS-FACTORIAL HepG2 Assay for human Pregnane X Receptor (PXR) (AID 2283008)
Summary of the method: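 Transactivation by exogenous PXR–GAL4 fusion measured as reporter transcript induction after 24 h compound treatment of transfected human HepG2 cells. Read-out via RT-PCR and capillary electrophoresis of labelled fragments, fitted upward relative to DMSO.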

[3] = molecular target: human Retinoic Acid Receptor gamma (RARg), RARG (gene 5916) (UniProt P13631); test: ATG_RARg_TRANS: Attagene TRANS-FACTORIAL HepG2 Assay for human Retinoic Acid Receptor gamma (RARg) (AID 2283009);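 as to AC50: AC50 is for reporter induction above DMSO meaning RARg activation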
Summary of the method: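 Gain-of-signal relative to DMSO is reported from fluorescent capillary electrophoresis of RT-PCR reporter products. These came from HepG2 cells expressing transfected RARg-GAL4 chimeras with UAS reporters, harvested 24 h after dosing.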

[4] = molecular target: human RAR-related Orphan Receptor beta (RORb), RORB (gene 6096) (UniProt Q92753); test: ATG_RORb_TRANS: Attagene TRANS-FACTORIAL HepG2 Assay for human RAR-related Orphan Receptor beta (RORb) (AID 2283010);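 as to AC50: potency for increased reporter mRNA meaning activation of RORb-Gal4 chimera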
Summary of the method: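 Multiplexed transcription-factor reporter assay: HepG2 cells transiently carrying NR-Gal4/GAL4-UAS constructs, 24 h treatment, mRNA quantified by RT-PCR plus capillary electrophoresis fluorescence; activity scored as induction over DMSO.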

[5] = molecular target: human RAR-related Orphan Receptor gamma (RORg), RORC (gene 6097) (UniProt P51449); test: ATG_RORg_TRANS: Attagene TRANS-FACTORIAL HepG2 Assay for human RAR-related Orphan Receptor gamma (RORg) (AID 2283011);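 as to AC50: potency for induction of reporter transcripts above DMSO so activators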
Summary of the method: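 Readout: reporter transcript induction (RT-PCR, fluorescent primer extension, capillary electrophoresis) after 24 h compound exposure of transiently transfected HepG2 cells carrying a RORg-Gal4 chimera and GAL4-UAS reporters; DMSO served as baseline, with increasing signal fitted.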

[6] = molecular target: Retinoic acid receptor RXR-alpha (Homo sapiens) (UniProt P19793); test: ATG_RXRa_TRANS: Attagene TRANS-FACTORIAL HepG2 Assay for human Retinoid X Receptor alpha (RXRa) (AID 2283012)
Summary of the method: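 Chimeric NR-GAL4 trans-activation in HepG2, 24 h treatment; reporter transcripts quantified by fluorescence on capillary electrophoresis, analysed for upward change from DMSO.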

[7] = molecular target: human Retinoid X Receptor beta (RXRb), RXRB (gene 6257) (UniProt P28702); test: ATG_RXRb_TRANS: Attagene TRANS-FACTORIAL HepG2 Assay for human Retinoid X Receptor beta (RXRb) (AID 2283013)
Summary of the method: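 After a 24 h incubation with test chemical, transfected HepG2 cells carrying NR-Gal4 fusions and GAL4-UAS reporter transcription units yield RNA whose reporter cDNA is FAM-labelled, HpaI-cut and sized by capillary electrophoresis; increases over DMSO are scored.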

[8] = molecular target: human Thyroid Receptor alpha (THRa1), THRA (gene 7067) (UniProt P10827); test: ATG_THRa1_TRANS: Attagene TRANS-FACTORIAL HepG2 Assay for human Thyroid Receptor alpha (THRa1) (AID 2283014)
Summary of the method: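 HepG2 cells transiently transfected with multiplexed GAL4-UAS reporter units for exogenous chimeric THRa1-Gal4; reporter mRNA measured 24 h after dosing by RT-PCR, 6-FAM labelling, HpaI digestion and capillary electrophoresis. Gain-of-signal fitted versus DMSO baseline.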

[9] = molecular target: human Vitamin D Receptor (VDR), VDR (gene 7421) (UniProt P11473); test: ATG_VDR_TRANS: Attagene TRANS-FACTORIAL HepG2 Assay for human Vitamin D Receptor (VDR) (AID 2283022)
Summary of the method: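 HepG2 cells were transiently transfected with multiple GAL4-UAS reporter units, so signal reflects exogenous chimeric receptor-Gal4 activity. After 24 h compound exposure, reporter mRNA was measured by RT-PCR, fluorescent labelling and capillary electrophoresis, fitted for gain of signal versus DMSO.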

Measured: AC50

CCOC(=O)CCCCCCCCC(=O)OCC
inconclusive: [1] 179 µM | [2] 100 µM | [3] 177 µM | [5] 100 µM | [6] 1.71 µM | [8] 100 µM | [9] 100 µM
inactive: [4] | [7]

O=C(OCc1ccccc1)c1ccccc1O
inactive: [4] | [6] | [9]
active: [2] 62.7 µM | [7] 50.1 µM
inconclusive: [1] 87.8 µM | [3] 27.9 µM | [5] 100 µM

O=c1[nH]c2ccc(S(=O)CCN3CCC(Cc4ccc(F)cc4)CC3)cc2o1 (stereo not drawn)
active: [2] 6.22 µM
inactive: [3]
inconclusive: [1] 4.89 µM | [4] 47.7 µM | [5] 24.6 µM | [7] 4.13 µM | [8] 0.009 µM

CCCCC(CC)C(=O)OCCOCCOCCOCCOC(=O)C(CC)CCCC (stereo not drawn)
inactive: [6] | [8]
active: [2] 35.3 µM
inconclusive: [1] 163 µM | [3] 174 µM | [4] 6.55 µM | [5] 100 µM | [7] 27.2 µM

Nc1ccc(C(=O)O)cc1
inconclusive: [2] 6.28 µM | [6] 100 µM | [7] 100 µM | [8] 100 µM
not listed: [9]
inactive: all other assays above

CCCCOCCOC(=O)COc1ccc(Cl)cc1Cl
inconclusive: [1] 100 µM | [2] 27.4 µM | [3] 29 µM | [6] 32 µM | [8] 100 µM | [9] 100 µM
inactive: [4] | [5]

CCOB(OCC)OCC
inactive: [1]
inconclusive: [2] 43.4 µM | [3] 100 µM | [4] 100 µM | [5] 184 µM | [6] 100 µM

C=CC(=O)NC(C)(C)CS(=O)(=O)O
inactive: [1] | [4] | [5]
inconclusive: [2] 26.6 µM | [3] 100 µM | [6] 0.202 µM | [9] 24.2 µM

CC(C)(C)c1cc(/C=C2\SC(N)=NC2=O)cc(C(C)(C)C)c1O
active: [2] 4.17 µM
inactive: [1] | [3] | [6]
inconclusive: [4] 0.317 µM | [5] 11 µM | [8] 0.857 µM | [9] 11 µM

FC(F)=C(F)C(F)(F)C(F)(F)C(F)(F)C(F)(F)C(F)(F)C(F)(F)F
inconclusive: [2] 50 µM | [4] 150 µM and 86 µM | [5] 50 µM | [7] 150 µM
inactive: [1] | [3] | [5]

CC(=O)CCC=C(C)C
inconclusive: [1] 179 µM | [2] 24.1 µM | [3] 183 µM | [5] 0.0831 µM | [6] 0.959 µM
inactive: [4] | [7] | [8]

O=C(O)C(F)(F)C(F)(F)C(F)(F)F
inconclusive: [1] 259 µM and 271 µM | [2] 150 µM | [3] 150 µM | [4] 150 µM | [5] 150 µM | [6] 3.64 µM | [7] 247 µM and 150 µM | [8] 150 µM

NC(=O)N=NC(N)=O
inconclusive: [1] 170 µM | [3] 100 µM | [4] 100 µM | [7] 100 µM | [8] 100 µM
inactive: [2] | [5] | [6]
